This data set has as its system serum albumin (500 uM in PBS, gel). In words: EMSA (3% agarose). The note with it: 500 uM albumin in PBS, binding via C16 fatty acid, legend names D0-C16; phosphorothioate linkages; C16 (palmitic acid); Albumin titration: fluorescein quenching, buffer not stated separately (binding curves: 50 mM Na2HPO4, 100 mM NaCl, pH 7.00, 20 C); gel: 500 uM albumin in PBS; commercial protein; label: fluorescein (FAM).

Construct, isoform or probe ends are uncertain for at least one entry. At least one verdict rests on a figure or table, not on a statement of the authors.

Take “CGCGCGCGCGCG (double strand) [D0-PS-FAM-C16]”: the binding result was “binds”.

The values are drawn from paper PMC9630261.
